The record followed here is PubChem BioAssay AID1457 (National Center for Advancing Translational Sciences (NCATS), 2008).

Values joined by “and” are separate entries in the source; they are usually repeats but may differ in a detail not shown here. Identical values can stand only once. What follows is the remainder of the data, with few or none of the hits. Active and inactive are the calls of the source. Calls follow the shape of the dose curve; as a rule, active = well fitted inhibition curve with a large enough effect; inconclusive = small, poorly fitted or top-dose-only effect; inactive = no such curve, though single readings can be large or run the other way.

The test can be described thus: qHTS Assay for Identifying the Cell-Membrane Permeable IMPase Inhibitors: Potentiation with Lithium.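 Also: IP1 builds up when IMPase is blocked and the TR-FRET signal falls; plate controls were basal vehicle for no effect and high inhibitor control for full effect; nearly all actives have a fitted effect of over 50% in size.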 As to conditions: CHO-M1 cells, IP1 TR-FRET (IP-One), carbachol + lithium; at 59.4 µM (top of the series). The source says:
NIH Chemical Genomics Center [NCGC]
NIH Molecular Libraries Probe Production centers Network [MLPCN]
Assay Submitter (PI): Wei Zheng
Lithium has been widely used for the treatment of bipolar disorder. But lithium has a narrow therapeutic index and it can cause side effects such as thirst, weight gain, tremor, polyuria and memory problems. Although the mechanism for lithium action in treatment of bipolar disorder is still not fully understood, inhibition of inositol monophosphatase (IMPase) and the subsequent depletion of the inositol pool in living cells have been implicated as the primary therapeutic benefit of lithium therapy. […]
To identify new cell-permeable IMPase inhibitors, we developed a cell-based IMPase assay in which the cytosolic IP1 is measured by a time-resolved fluorescence resonance energy transfer (TR-FRET) assay. […]
A Chinese hamster ovary (CHO) cell line stably expressing the M1 receptor (CHO-M1) was obtained from ATCC and maintained in F-12 Kaighn's media (Invitrogen, Carlsbad, CA) supplemented with 10 % FBS, 100 units/ml penicillin, 100 ug/ml streptomycin and 250 ug/ml geneticin at 37C, 5% CO2 in a humidified atmosphere. […] AC50 values were determined from concentration-response data modeled with the standard Hill equation. […]
(7) Detect the assay plate (Ex = 320, Em1 =665 and Em2 620) in a ViewLux plate reader.
Take `CN1C2CCC1CC(OC(=O)C(O)c1ccccc1)C2` (configuration not stated): the activity, negative = IMPase inhibition was inactive: 34.3% and inactive: 39.4%.

Consider `CN1[C@@H]2CC[C@H]1CC(OC(=O)[C@@H](O)c1ccccc1)C2` (some centres not stated), for which the activity, negative = IMPase inhibition was inactive: 10.8% and inactive: 32.6%.
